Tested on: mixture of NrdA (α) and NrdB (β)
Experiment: GEMMA analysis of NrdA-NrdB mixture
Set-up: species or system Leeuwenhoekiella blandensis
Conditions: 100 µM dATP

## Nc1ncnc2c1ncn2[C@H]1C[C@H](O)[C@@H](COP(=O)(O)OP(=O)(O)OP(=O)(O)O)O1 [dATP]
0.1 mg/ml NrdA and 0.1 mg/ml NrdB, expected α2β4 (theoretically 348 kDa)
  mass of complex formed: 340 kDa
0.4 mg/ml NrdA and 0.3 mg/ml NrdB, expected α4β4 (theoretically 488 kDa)
  mass of complex formed at higher protein concentration: 465 kDa

— article PMC5794259, “Novel ATP-cone-driven allosteric regulation of ribonucleotide reductase via the radical-generating subunit” (eLife, 2018)
